The list shows a part of the results.
Test system: T1, CTL2-GFP (C. trachomatis L2/434/Bu, GFP-expressing)
T1 construct: L2/434/Bu, GFP-expressing
Parameters: species or system HeLa; Intracellular C. trachomatis growth in HeLa cells, bulk GFP fluorescence relative to DMSO
Conditions: bulk GFP, single well; 28.5 h, 10 µM; inhibitor

Question: Which “% of control remaining” value does the source give for NC(=O)c1nc(-c2ccccc2)nc2c1[nH]c(=O)n2-c1cccc(Cl)c1 [CBK287544] here?
Answer: 124.093%

Question: How did the “% of control remaining” value turn out when CCC12CN3CC(CC)(CN(C1)C3c1ccc([N+](=O)[O-])cc1)C2=O (centres unmarked) [CBK263689] was run?
Answer: 129.189%

Question: CCCN1C(=S)N(CCO)C(=O)/C1=C/C=C1/Oc2ccccc2N1CCC(=O)O [CBK261400] was tested. Which “% of control remaining” value did it give?
Answer: 100%

Question: Which “% of control remaining” value does the source give for CSCC(=O)N1C[C@@H]2C[C@H](C1)c1c(-c3cncnc3)ccc(=O)n1C2 [CBK289195] here?
Answer: 147.838%

Question: How did the “% of control remaining” value turn out when CC(=O)Nc1ccc(S(=O)(=O)Nc2ccnc(N3CCNCC3)n2)cc1 [CBK000363C] was run?
Answer: 80.6402%

Question: For CC1(C)CC(NC(=O)C2CCCN(S(C)(=O)=O)C2)c2ccccc2O1 (centres unmarked) [CBK304365], which “% of control remaining” value is on record?
Answer: 110.793%

Question: For c1cnc2[nH]c(C3CC3)c(CN3CCN4CCCCC4C3)c2c1 (centres unmarked) [CBK285313], which “% of control remaining” value is on record?
Answer: 152.653%

Question: How did the “% of control remaining” value turn out when Cc1cc(C=O)c(C)n1-c1ccc(Oc2ccc([N+](=O)[O-])cn2)cc1 [CBK264167] was run?
Answer: 82.4789%

Question: For OCCn1ncc2c(NCc3cccnc3-n3cccn3)ncnc21 [CBK305977], which “% of control remaining” value is on record?
Answer: 130.732%

Question: For COc1cccc(C2=CC(c3ccccc3Cl)N3N=NNC3=N2)c1 (centres unmarked) [CBK287943], which “% of control remaining” value is on record?
Answer: 146.857%

Question: Which “% of control remaining” value does the source give for O=C(O)CCCCN1C(=O)c2ccccc2S1(=O)=O [CBK287189] here?
Answer: 119.557%

Question: CCCNC(=O)c1ccc(C)c(NC(=O)NC2CCOC2)c1 (centres unmarked) [CBK306794] was tested. Which “% of control remaining” value did it give?
Answer: 114.222%

Question: Which “% of control remaining” value does the source give for COc1ccc(-c2nnc([C@H]3CCN(Cc4ccccn4)C3)o2)cc1 [CBK289401] here?
Answer: 119.265%

Question: With CCOC(=O)C(N)CSC1CC(=O)N(c2ccc(Br)cc2)C1=O (centres unmarked) [CBK017250C] as the compound, how does the “% of control remaining” value read?
Answer: 132.756%

Question: With CCSc1ccnc2c1c(=O)n(C)c(=O)n2C [CBK287749] as the compound, how does the “% of control remaining” value read?
Answer: 118.76%

Question: With CN1CCN(C(=O)c2ccc(-c3ccc(N4CCOCC4)cc3)nc2N(C)C)CC1 [CBK106114] as the compound, how does the “% of control remaining” value read?
Answer: 100%

Question: Which “% of control remaining” value does the source give for CC(=O)NC1(c2ccc(F)cc2)CCN(C(=O)C2CCCCC2)CC1 [CBK283546] here?
Answer: 109.419%

Question: With O=c1ccc(-c2cccs2)nn1C[C@H]1CCCN1 [CBK284313] as the compound, how does the “% of control remaining” value read?
Answer: 129.17%

Question: How did the “% of control remaining” value turn out when CNC(=O)CSc1nccnc1N1CCCC1 [CBK107748] was run?
Answer: 117.52%

Question: How did the “% of control remaining” value turn out when COC(=O)c1ccsc1NS(=O)(=O)c1ccccc1 [CBK026667] was run?
Answer: 115.244%

Question: How did the “% of control remaining” value turn out when CC(NC(=O)C1CCN(Cc2ncc[nH]2)CC1)c1ccc(F)cc1 (centres unmarked) [CBK148037] was run?
Answer: 118.963%

Question: For Cc1ccc(-n2c3nc(=O)[nH]c(=O)c-3cc3c(Cl)cccc32)c(C)c1 [CBK287965], which “% of control remaining” value is on record?
Answer: 96.5641%

Question: For COc1ccc(CSc2nc3sc4c(c3c(=O)n2Cc2ccccc2)CCN(Cc2ccccc2)C4)cc1 [CBK263714], which “% of control remaining” value is on record?
Answer: 123.014%

Question: Which “% of control remaining” value does the source give for COc1ccc([C@@]23CC[C@@H](NC(=O)Nc4cccc(S(=O)(=O)C(F)(F)F)c4)C[C@@H]2N(C)CC3)cc1OC [CBK051275T] here?
Answer: 101.718%

Question: Which “% of control remaining” value does the source give for CCCCN(C)c1nccnc1-c1ccc(CO)cc1 [CBK037666] here?
Answer: 104.939%

Question: COc1ccc(S(=O)(=O)N2CCN(C(=O)COc3ccc4ccccc4c3)CC2)cc1 [CBK263371] was tested. Which “% of control remaining” value did it give?
Answer: 132.021%

Question: With CCn1cncc1CN1CC2CCCC(O)(c3ccc(C)cc3)C2C1 (centres unmarked) [CBK284374] as the compound, how does the “% of control remaining” value read?
Answer: 112.063%

Question: How did the “% of control remaining” value turn out when O=C(CCN1CCCCC1)Nc1ccc2c(=O)n3c(nc2c1)/C(=C/c1ccccc1)CC3 [CBK017786] was run?
Answer: 11.8318%

Question: Which “% of control remaining” value does the source give for COc1ccc(NC(=O)C2CCCN2c2nc(O)cc(C(F)(F)F)n2)c(OC)c1 (centres unmarked) [CBK003951] here?
Answer: 104.419%

Question: With O=C(c1cccc2ncccc12)N1CC[C@@H](c2ccccc2)[C@H](O)C1 [CBK283716] as the compound, how does the “% of control remaining” value read?
Answer: 124.021%

Question: Which “% of control remaining” value does the source give for Cc1cnn(C2(C(=O)O)CCN(C(=O)c3cccc(C#N)c3)CC2)c1 [CBK307058] here?
Answer: 88.8597%

Question: Which “% of control remaining” value does the source give for CCOc1ccc(/N=C2/SC(C(=O)O)CC(=O)N2Cc2ccc3c(c2)OCO3)cc1 (centres unmarked) [CBK263296] here?
Answer: 113.978%

Question: Which “% of control remaining” value does the source give for Fc1ccc2c(-c3ccccc3)noc2c1 [CBK025975] here?
Answer: 128.571%

Question: For O=C(NC1CCN(Cc2cc(F)cc(F)c2)CC1)c1cn2ccsc2n1 [CBK306970], which “% of control remaining” value is on record?
Answer: 118.707%

Question: With O=C1NCC2(C/C=C/CCOc3ccccc31)CCN(C(=O)CCN1CCCC1=O)CC2 [CBK292016] as the compound, how does the “% of control remaining” value read?
Answer: 158.056%

Question: N#CCCN(C(=O)Nc1ccc(Cl)cc1)C1CCCCC1 [CBK156365] was tested. Which “% of control remaining” value did it give?
Answer: 88.4042%

Question: CC(C(=O)Nc1cccc2[nH]ccc12)c1ccc(Cl)cc1 (centres unmarked) [CBK159647] was tested. Which “% of control remaining” value did it give?
Answer: 114.954%

Question: How did the “% of control remaining” value turn out when CN1CCC(CN(C)Cc2ccc3cccc(Cl)c3n2)C1 (centres unmarked) [CBK282615] was run?
Answer: 116.79%

Question: How did the “% of control remaining” value turn out when COc1cc(CNC23CC4CC(CC(C4)C2)C3)c(Cl)cc1OCC(=O)O [CBK269567] was run?
Answer: 150.369%

Question: CCOC(=O)c1ccccc1NS(=O)(=O)c1ccc(C)c([N+](=O)[O-])c1 [CBK045451] was tested. Which “% of control remaining” value did it give?
Answer: 107.739%

Question: Which “% of control remaining” value does the source give for CC(=O)Nc1cc(S(N)(=O)=O)c(F)cc1C [CBK034356] here?
Answer: 143.84%

Question: CC(=O)Nc1ccc(S(=O)(=O)NCCSc2ccccn2)cc1 [CBK263576] was tested. Which “% of control remaining” value did it give?
Answer: 100%

Question: Which “% of control remaining” value does the source give for Cc1nc(C)n(CC2CCCN(Cc3nc4c(F)cccc4[nH]3)C2)n1 (centres unmarked) [CBK306218] here?
Answer: 136.882%

Question: For COc1cc([C@@]23CC[C@@H](NC(=O)Nc4ccc(F)c(F)c4)C[C@@H]2N(C)CC3)ccc1O [CBK049958C], which “% of control remaining” value is on record?
Answer: 99.2608%

Question: NC(=O)NCc1ccc(F)cc1 [CBK019769] was tested. Which “% of control remaining” value did it give?
Answer: 109.114%

Question: With CCN(CCN1CCOCC1)C(=O)c1[nH]c2c(F)cccc2c1C [CBK306772] as the compound, how does the “% of control remaining” value read?
Answer: 118.614%

Question: How did the “% of control remaining” value turn out when Cc1nc2cc(C(=O)N(C)CCN3CCCCC3)ccc2n1C [CBK281854] was run?
Answer: 157.344%

Question: For CC(C)c1ccc(CNC(=O)c2ccc(-c3ccoc3)nc2)cc1 [CBK156292], which “% of control remaining” value is on record?
Answer: 98.9763%

Question: Which “% of control remaining” value does the source give for CCC(=O)Nc1nc2c(OC)ccc(C)c2s1 [CBK287616] here?
Answer: 114.781%

Question: Which “% of control remaining” value does the source give for O=C(O)c1cccc(NC(=O)c2ccc(CSc3ccc(Br)cc3)cc2)c1 [CBK263226] here?
Answer: 118.126%

Reference: paper PMC12040169 (PLOS Biology, 2025)
